Library screen at single concentrations

Chains of the proteins cited; added tags and fusions are not shown. Residues count along the entry.
UniProt P9WFT3, whole entry: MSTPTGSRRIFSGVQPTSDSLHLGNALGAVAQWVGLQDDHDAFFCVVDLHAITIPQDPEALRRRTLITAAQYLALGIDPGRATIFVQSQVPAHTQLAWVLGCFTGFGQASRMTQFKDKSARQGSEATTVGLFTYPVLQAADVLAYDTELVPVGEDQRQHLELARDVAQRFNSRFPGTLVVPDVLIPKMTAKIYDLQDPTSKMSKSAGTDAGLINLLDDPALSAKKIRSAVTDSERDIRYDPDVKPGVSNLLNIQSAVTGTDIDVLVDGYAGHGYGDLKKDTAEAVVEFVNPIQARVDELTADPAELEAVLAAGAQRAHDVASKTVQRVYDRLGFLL
UniProt I6X8D2, whole entry: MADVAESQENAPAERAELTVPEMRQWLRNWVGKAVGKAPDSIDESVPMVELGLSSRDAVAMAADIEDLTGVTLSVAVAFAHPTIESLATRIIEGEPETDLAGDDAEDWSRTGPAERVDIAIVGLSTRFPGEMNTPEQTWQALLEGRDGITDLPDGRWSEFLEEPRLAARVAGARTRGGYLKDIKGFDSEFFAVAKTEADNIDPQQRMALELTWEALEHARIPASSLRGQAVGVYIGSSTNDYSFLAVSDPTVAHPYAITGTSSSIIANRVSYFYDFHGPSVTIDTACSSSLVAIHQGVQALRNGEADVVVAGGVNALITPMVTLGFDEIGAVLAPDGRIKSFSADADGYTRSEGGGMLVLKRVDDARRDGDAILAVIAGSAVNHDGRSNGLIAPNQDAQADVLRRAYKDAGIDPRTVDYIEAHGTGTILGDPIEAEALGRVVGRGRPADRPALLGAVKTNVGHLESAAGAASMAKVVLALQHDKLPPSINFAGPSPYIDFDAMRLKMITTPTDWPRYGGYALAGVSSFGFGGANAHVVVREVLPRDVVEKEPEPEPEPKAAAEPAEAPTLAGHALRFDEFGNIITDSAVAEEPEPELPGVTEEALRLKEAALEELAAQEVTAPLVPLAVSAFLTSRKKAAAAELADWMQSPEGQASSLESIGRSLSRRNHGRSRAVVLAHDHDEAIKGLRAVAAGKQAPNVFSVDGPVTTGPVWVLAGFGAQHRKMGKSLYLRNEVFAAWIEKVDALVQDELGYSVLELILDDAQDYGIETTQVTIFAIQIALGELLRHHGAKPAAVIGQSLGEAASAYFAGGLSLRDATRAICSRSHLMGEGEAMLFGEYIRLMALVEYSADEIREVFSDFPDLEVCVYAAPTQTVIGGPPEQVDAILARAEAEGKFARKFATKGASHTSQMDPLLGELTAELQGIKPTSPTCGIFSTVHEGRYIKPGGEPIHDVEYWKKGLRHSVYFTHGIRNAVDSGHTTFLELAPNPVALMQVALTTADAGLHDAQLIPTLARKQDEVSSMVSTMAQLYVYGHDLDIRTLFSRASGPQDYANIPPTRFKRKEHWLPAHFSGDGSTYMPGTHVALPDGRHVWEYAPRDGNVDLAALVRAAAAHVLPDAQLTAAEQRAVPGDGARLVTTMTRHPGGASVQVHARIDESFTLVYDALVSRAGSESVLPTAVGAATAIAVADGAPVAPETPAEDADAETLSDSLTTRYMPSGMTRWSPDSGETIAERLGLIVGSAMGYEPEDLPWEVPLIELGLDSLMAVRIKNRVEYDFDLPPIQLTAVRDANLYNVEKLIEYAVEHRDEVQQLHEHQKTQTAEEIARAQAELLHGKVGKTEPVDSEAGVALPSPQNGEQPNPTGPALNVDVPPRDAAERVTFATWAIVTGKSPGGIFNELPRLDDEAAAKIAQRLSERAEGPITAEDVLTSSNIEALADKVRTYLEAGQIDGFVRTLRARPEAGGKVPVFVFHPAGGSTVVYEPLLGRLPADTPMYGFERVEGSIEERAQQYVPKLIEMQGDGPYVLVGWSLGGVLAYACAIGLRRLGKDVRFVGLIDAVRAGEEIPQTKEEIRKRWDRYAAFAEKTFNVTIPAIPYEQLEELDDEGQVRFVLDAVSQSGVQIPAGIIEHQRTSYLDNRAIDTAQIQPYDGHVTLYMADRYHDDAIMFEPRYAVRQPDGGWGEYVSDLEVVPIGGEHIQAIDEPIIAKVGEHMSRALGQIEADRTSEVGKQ
UniProt A4I591, 1-473: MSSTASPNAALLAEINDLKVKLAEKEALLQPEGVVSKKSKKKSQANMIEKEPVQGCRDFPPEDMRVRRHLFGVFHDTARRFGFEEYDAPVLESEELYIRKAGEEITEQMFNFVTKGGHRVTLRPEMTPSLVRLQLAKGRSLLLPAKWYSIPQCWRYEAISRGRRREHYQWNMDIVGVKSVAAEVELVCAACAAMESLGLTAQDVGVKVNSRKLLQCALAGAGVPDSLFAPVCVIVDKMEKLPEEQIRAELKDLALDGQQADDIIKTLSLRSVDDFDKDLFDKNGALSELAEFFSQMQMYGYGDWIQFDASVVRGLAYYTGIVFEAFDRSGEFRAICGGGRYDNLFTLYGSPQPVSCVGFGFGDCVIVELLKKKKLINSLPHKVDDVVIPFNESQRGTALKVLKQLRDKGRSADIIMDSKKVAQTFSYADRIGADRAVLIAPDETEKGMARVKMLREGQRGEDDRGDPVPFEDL
UniProt Q4DA54, 1-478: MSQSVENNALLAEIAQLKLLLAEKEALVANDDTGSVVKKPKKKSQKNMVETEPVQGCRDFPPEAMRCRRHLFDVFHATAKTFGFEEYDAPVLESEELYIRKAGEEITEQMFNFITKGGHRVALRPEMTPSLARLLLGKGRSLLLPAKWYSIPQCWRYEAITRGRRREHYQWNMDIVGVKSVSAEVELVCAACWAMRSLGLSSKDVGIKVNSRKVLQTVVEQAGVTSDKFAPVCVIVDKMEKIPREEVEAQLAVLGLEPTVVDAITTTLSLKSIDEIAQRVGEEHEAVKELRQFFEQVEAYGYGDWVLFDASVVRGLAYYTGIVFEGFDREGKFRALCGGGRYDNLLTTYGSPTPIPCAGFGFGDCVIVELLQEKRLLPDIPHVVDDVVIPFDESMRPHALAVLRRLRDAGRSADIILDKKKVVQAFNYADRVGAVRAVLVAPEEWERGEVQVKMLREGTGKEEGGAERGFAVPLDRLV

From ChEMBL document CHEMBL3988442, “University of Dundee, Small-Polar-MMV Screening Library” (2021).

A: 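Tryptophan-tRNA ligase, Mycobacterium tuberculosis (UniProt P9WFT3). Enzyme assay of tryptophanyl-tRNA synthetase; the read-out is not stated. Concentration: 10 µM. Higher most likely means stronger inhibition; the record gives no direction and few retests gave an IC50. Of about 65,000 compounds tested this way, about 64 (0.098%) reached 50% or more in at least one test.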
B: 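Enzyme assay of the thioesterase domain of polyketide synthase 13; the read-out is not stated. Target: Polyketide synthase Pks13, Mycobacterium tuberculosis (UniProt I6X8D2). Tested at 30 µM. Higher reads as stronger inhibition (inferred from which compounds were picked for retests). Of about 67,000 compounds tested this way, about 300 (0.46%) reached 50% or more in at least one test.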
C: 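Enzyme assay of histidyl-tRNA synthetase; the read-out is not stated. Target: Histidine-tRNA ligase, Leishmania infantum (UniProt A4I591). Compounds at 30 µM. Direction is inferred from retests: higher values go with stronger inhibition. The assay is labelled LdHisRS but filed under L. infantum. About 69,000 compounds were tested under these conditions; 0.6% (about 410) showed 50% or more at least once.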
D: 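Enzyme assay of histidyl-tRNA synthetase; the read-out is not stated. Target: Histidine-tRNA ligase, Trypanosoma cruzi CL Brener (UniProt Q4DA54). Compounds at 30 µM. Direction is inferred from retests: higher values go with stronger inhibition. Of about 69,000 compounds tested this way, about 31 (0.045%) reached 50% or more in at least one test.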

Results are given as percent effect.
How 0% and 100% were set is not recorded. Most values in the screen are low, and negative values occur.
Compounds were drawn at random from those tested, without regard to their results.

{"structure": "COCCC(=O)N(Cc1ccccn1)Cc1ccccc1C", "A": -3.306, "B": -25.64, "C": 16.13, "D": -3.247}
{"structure": "Cc1cccc(C(=O)N2CCN(c3ccc(-n4cccc4)nn3)CC2)c1", "A": -6.518, "B": -38.32, "C": 16.24, "D": 7.778}
{"structure": "CN1CCCN(C(=O)c2cc(-c3cc[nH]n3)n3ccccc23)CC1", "A": -4.758, "B": -10.16, "C": 28, "D": 2.299}
{"structure": "COc1ccc(C[C@H]2CN(c3cc(OC)ncn3)CC[C@@H]2OC)cc1", "A": -3.996, "B": -13.14, "C": 22.22, "D": 7.463}
{"structure": "CN(CCO)C(=O)c1coc(CN2CCN(c3ccccc3F)CC2)n1", "A": 8.526, "B": -16.34, "C": -2.913, "D": 0.4149}
{"structure": "O=C(CN1CCOc2ccc(Cl)cc21)NCc1ncc[nH]1", "A": -2.279, "B": 3.036, "C": 2.941, "D": 6.878}
{"structure": "CC(=O)N1CCN([C@@H]2CN(C(=O)Cc3ccccc3C)C[C@H]2O)CC1", "A": -5.074, "B": 4.439, "C": 9.929, "D": 13.91}
{"structure": "Cc1c(C)n(Cc2ccncc2)c2nc3c(c(N)c12)CCCCC3", "A": -5.628, "B": -61.23, "C": 27.18, "D": -3.825}
{"structure": "Cc1ccc(N2C[C@H]3OCC[C@H]3[C@H](C(=O)NCc3ccco3)C2)nn1", "A": -10.29, "B": -19.66, "C": 20.59, "D": 5.911}
{"structure": "Cc1nc(CN2CCO[C@@H]3CN(C(=O)CC4CC4)C[C@@H]3C2)cs1", "A": -0.1744, "B": -13.43, "C": 12.73, "D": 7.438}
{"structure": "CCOc1c(Cl)cccc1NS(=O)(=O)c1cc(C)c(C(=O)O)s1", "A": 6.772, "B": -18.77, "C": 24.59, "D": 1.163}
{"structure": "O=C(Nc1ccccc1)N1CCc2nc(C(=O)N3CCCC3)sc2CC1", "B": 2.411, "C": 7.547, "D": 2.222}
{"structure": "Cc1ccc(C(=O)N2CCc3ncc(Cn4cccn4)n3CC2)o1", "A": -6.826, "B": -13.37, "C": 23.61, "D": 8.571}
{"structure": "CN(CC(=O)N(C)C(c1cccnc1)c1ccc(F)c(F)c1)C1CC1", "stereo": "stereo not drawn", "A": 5.759, "B": -10.69, "C": -6.579, "D": -2.463}
{"structure": "Cc1cnn(CCNCC(O)COc2cc(Cl)ccc2Cl)c1", "stereo": "stereo not drawn", "A": 0, "B": 6.263, "C": 16.95, "D": 8.571}
{"structure": "c1cc(CN2CCC(c3ccncc3)CC2)cc(Cn2cccn2)c1", "A": 4.71, "B": -14.05, "C": 23.2, "D": 2.513}
{"structure": "CCC(=O)Nc1ncn(Cc2cccnc2)n1", "A": 1.826, "B": -8.379, "C": 16.67, "D": 0}
{"structure": "CSc1ccc(NC(=O)NCC(O)C2CC2)cc1F", "stereo": "stereo not drawn", "A": -8.249, "B": 1.96, "C": 9.244, "D": 3.922}
{"structure": "COCCNC(=O)CN(C)C(C)c1nc(C)no1", "stereo": "stereo not drawn", "A": 0.7342, "B": -11.15, "C": -2.041, "D": 5}
{"structure": "Cn1cc(CN2CCCC(c3nc(O)cc(-c4cccs4)n3)C2)cn1", "stereo": "stereo not drawn", "A": 2.42, "B": -6.272, "C": 9.929, "D": 7.143}
{"structure": "O=C(NCCc1nncn1C1CC1)c1cnn(Cc2ccccc2)c1", "A": 8.338, "B": -3.112, "C": 20.41, "D": 5.128}
{"structure": "Cc1ccsc1C(=O)N1CCCN(Cc2cscn2)CC1", "A": 0.2508, "B": -13.41, "C": 20.35, "D": 8.455}
{"structure": "O=C(O)[C@@H]1CN(CC(=O)N2CCCCCC2)C[C@H]1c1ccc(F)cc1", "A": 0.5415, "B": -5.446, "C": 15.71, "D": 1.064}
{"structure": "OC1=C2C(=Nc3n[nH]c(O)c3C2c2ccco2)CCC1", "stereo": "stereo not drawn", "A": -2.67, "B": 7.436, "C": 14.61, "D": 4.663}
{"structure": "Cc1nc(-c2ccco2)ccc1C(=O)NCCC(=O)N1CCCCC1", "A": 3.728, "B": -2.519, "C": 29.63, "D": 7.975}

2 of the entries, repeated:

{"structure": "CCOc1c(Cl)cccc1NS(=O)(=O)c1cc(C)c(C(=O)O)s1", "A": 6.772, "B": -18.77, "C": 24.59, "D": 1.163}
{"structure": "O=C(NCCc1nncn1C1CC1)c1cnn(Cc2ccccc2)c1", "A": 8.338, "B": -3.112, "C": 20.41, "D": 5.128}